Experimental data: paper PMC9698719
These are yes or no findings as the source states them, for the method shown. In cells and extracts the contact can be indirect. Some entries that bind do so weakly or less than the wild type. For some assays here: Where a sequence is shown, tags or fusion partners need not be part of it.

What was measured:
[1] = target: cyclin-dependent kinase 5 (Cdk5), endogenous in mouse brain lysate (mouse (endogenous in brain)) (UniProt P49615); test: co-IP; mouse brain lysate; Cdk5 IPs blotted with cPLA2 antibody and cPLA2 IPs blotted with Cdk5 antibody; A/G Sepharose beads, wash buffer 50 mM Tris pH 8.5, 1 mM EGTA, 75 mM KCl
[2] = target: cyclin-dependent kinase 5 (Cdk5), overexpressed in HEK293T cells (UniProt Q00535); test: co-IP; lysate of HEK293T cells overexpressing Cdk5 and cPLA2; Cdk5 IPs blotted with cPLA2 antibody and cPLA2 IPs blotted with Cdk5 antibody; A/G Sepharose beads, wash buffer 50 mM Tris pH 8.5, 1 mM EGTA, 75 mM KCl

| Binder | binding [1] | binding [2] |
| --- | --- | --- |
| cytosolic phospholipase A2 (cPLA2), endogenous in mouse brain lysate (enzyme, UniProt P47713 1-748) MSFIDPYQHIIVEHQYSHKFTVVVLRATKVTKGTFGDMLDTPDPYVELFISTTPDSRKRTRHFNNDINPVWNETFEFILDPNQENVLEITLMDANYVMDETLGTATFPVSSMKVGEKKEVPFIFNQVTEMILEMSLEVCSCPDLRFSMALCDQEKTFRQQRKENIKENMKKLLGPKKSEGLYSTRDVPVVAILGSGGGFRAMVGFSGVMKALYESGILDCATYIAGLSGSTWYMSTLYSHPDFPEKGPEEINEELMKNVSHNPLLLLTPQKVKRYVESLWKKKSSGQPVTFTDIFGMLIGETLIQNRMSMTLSSLKEKVNAARCPLPLFTCLHVKPDVSELMFADWVEFSPYEIGMAKYGTFMAPDLFGSKFFMGTVVKKYEENPLHFLMGVWGSAFSILFNRVLGVSGSQNKGSTMEEELENITAKHIVSNDSSDSDDEAQGPKGTENEEAEKEYQSDNQASWVHRMLMALVSDSALFNTREGRAGKVHNFMLGLNLNTSYPLSPLRDFSSQDSFDDELDAAVADPDEFERIYEPLDVKSKKIHVVDSGLTFNLPYPLILRPQRGVDLIISFDFSARPSDTSPPFKELLLAEKWAKMNKLPFPKIDPYVFDREGLKECYVFKPKNPDVEKDCPTIIHFVLANINFRKYKAPGVLRETKEEKEIADFDIFDDPESPFSTFNFQYPNQAFKRLHDLMYFNTLNNIDVIKDAIVESIEYRRQNPSRCSVSLSNVEARKFFNKEFLSKPTV | binds |  |
| human cytosolic phospholipase A2 (cPLA2) wild type, 6xHis-tagged, overexpressed in HEK293T cells (enzyme, UniProt P47712 1-749) MSFIDPYQHIIVEHQYSHKFTVVVLRATKVTKGAFGDMLDTPDPYVELFISTTPDSRKRTRHFNNDINPVWNETFEFILDPNQENVLEITLMDANYVMDETLGTATFTVSSMKVGEKKEVPFIFNQVTEMVLEMSLEVCSCPDLRFSMALCDQEKTFRQQRKEHIRESMKKLLGPKNSEGLHSARDVPVVAILGSGGGFRAMVGFSGVMKALYESGILDCATYVAGLSGSTWYMSTLYSHPDFPEKGPEEINEELMKNVSHNPLLLLTPQKVKRYVESLWKKKSSGQPVTFTDIFGMLIGETLIHNRMNTTLSSLKEKVNTAQCPLPLFTCLHVKPDVSELMFADWVEFSPYEIGMAKYGTFMAPDLFGSKFFMGTVVKKYEENPLHFLMGVWGSAFSILFNRVLGVSGSQSRGSTMEEELENITTKHIVSNDSSDSDDESHEPKGTENEDAGSDYQSDNQASWIHRMIMALVSDSALFNTREGRAGKVHNFMLGLNLNTSYPLSPLSDFATQDSFDDDELDAAVADPDEFERIYEPLDVKSKKIHVVDSGLTFNLPYPLILRPQRGVDLIISFDFSARPSDSSPPFKELLLAEKWAKMNKLPFPKIDPYVFDREGLKECYVFKPKNPDMEKDCPTIIHFVLANINFRKYRAPGVPRETEEEKEIADFDIFDDPESPFSTFNFQYPNQAFKRLHDLMHFNTLNNIDVIKEAMVESIEYRRQNPSRCSVSLSNVEARRFFNKEFLSKPKA |  | binds |
